This test relates to Salmonella enterica serovar Typhimurium SL1344. Put plainly: bacterial growth OD600 after 18 h with compound and polymyxin B; higher = more bacterial growth (less inhibition). Particulars: 50 µM, Mueller-Hinton broth.

Structures are written as SMILES. Some of the results follow. Values are raw readings; no control value is given beside them.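 First-pass screen: polymyxin B was added at a level that permeabilizes the Salmonella outer membrane while sparing the inner membrane. DMSO wells, with and without polymyxin B, defined maximum growth. Because plates differed from one another, each plate's data were ranked separately and the compounds with the lowest OD600 were carried forward as hits.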

As to `CCOC(=O)C1(CCOc2ccccc2)CCN(C(=O)CC2=CCCCC2)CC1`, the “bacterial growth OD600” value (polymyxin B 1 µg/mL) amounted to 0.129. For the compound `COc1ccc(CC2(CO)CCN(Cc3ccccc3OC(F)F)CC2)cc1`, the “bacterial growth OD600” value (polymyxin B 1 µg/mL) worked out at 0.799.

Regarding `O=C(Cn1cnc2ccccc21)N1CCCC(N2CCN(c3ccccc3F)CC2)C1` (stereo not given), the “bacterial growth OD600” value (polymyxin B 1 µg/mL) is 1.05.

Turning to `CN(C(=O)c1cccc(Cl)c1)C1CCCN(C2Cc3ccccc3C2)C1` (stereo not given), the “bacterial growth OD600” value (polymyxin B 1 µg/mL) stood at 1.17. On the same count and under the same terms, in the case of `Cc1nnc(SCCNC(=O)c2coc(Cn3cnc4ccccc43)n2)s1` it was 0.684. For the compound `O=C(Nc1ccccc1Oc1cccnc1)C1CCCN(C(=O)CCc2ccncc2)C1` (stereo not given), the “bacterial growth OD600” value (polymyxin B 0.75 µg/mL) worked out at 0.805.

For the compound `CCc1nc2cc(C(=O)N(C)CCc3ccccn3)cc(NC(=O)c3ccccc3OC)c2n1C`, the “bacterial growth OD600” value (polymyxin B 0.75 µg/mL) was determined as 0.811. Regarding `C=C(C)CN(C)Cc1cnc(S(=O)(=O)CC)n1CCc1ccccc1`, the “bacterial growth OD600” value (polymyxin B 1 µg/mL) came out at 0.536. Turning to `CCn1ccnc1CNc1nc2nonc2nc1N1CCCC1`, for the setting “polymyxin B 0.75 µg/mL”, the “bacterial growth OD600” value worked out at 0.954. As for `c1ccc(CCC2CCCCN2Cc2nc(-c3ccc4c(c3)OCO4)no2)nc1` (stereo not given), the “bacterial growth OD600” value (polymyxin B 1 µg/mL) came to 0.078. As for `O=C(Nc1ccc(-n2cccn2)cc1)C1CCCCN1Cc1cccnc1` (stereo not given), the “bacterial growth OD600” value (polymyxin B 1 µg/mL) turned out to be 1.05. Regarding `COCCCNc1nc2nonc2nc1NCc1ccc(Cl)s1`, the “bacterial growth OD600” value (polymyxin B 0.75 µg/mL) is -0.002. On to `COc1ccc(F)c(CN2CCC(n3nccc3NC(=O)C3CCCC3)CC2)c1`, for which the “bacterial growth OD600” value (polymyxin B 0.75 µg/mL) amounted to 0.706. As for `COCCC1CCCCN1C(=O)CCc1nnc(CCc2ccccc2OC)o1` (stereo not given), under “polymyxin B 0.75 µg/mL”, the “bacterial growth OD600” value came out at 0.84.

Take `CCn1cc(CNC2CCCc3nc(-c4cccnc4)ncc32)cn1` (stereo not given): for the setting “polymyxin B 1 µg/mL”, the “bacterial growth OD600” value worked out at 0.925. Turning to `CCCn1cc(CN2CCC(CO)(CCCc3ccccc3)CC2)c(C)n1`, the “bacterial growth OD600” value (polymyxin B 0.75 µg/mL) amounted to 0.86. In the case of `COc1ccccc1CC(=O)N(C)CC1CCCN(CCc2ccc(F)cc2)C1` (stereo not given), the “bacterial growth OD600” value (polymyxin B 1 µg/mL) is 0.722. On to `O=C(NC1CCCCCCC1)C1CCCN(C2CCN(C(=O)C3CC3)CC2)C1` (stereo not given), for which, under “polymyxin B 0.75 µg/mL”, the “bacterial growth OD600” value amounted to 0.607. Regarding `CCOc1ccccc1N1CCN(C(=O)CCC2(Cc3ccc(F)c(OC)c3)CCC(=O)N2)CC1` (stereo not given), the “bacterial growth OD600” value (polymyxin B 0.75 µg/mL) is 0.81.

For the compound `O=C(C1CCCC1)N1CCC(C2CCN(Cc3cccnc3)CC2)C1` (stereo not given), the “bacterial growth OD600” value (polymyxin B 0.75 µg/mL) was 0.987. On to `Fc1ccc(CC2CCN(Cc3nc(COc4ccccc4)no3)CC2)cc1`, for which, under “polymyxin B 1 µg/mL”, the “bacterial growth OD600” value turned out to be 0.825. The same measure, in the same setting: in the case of `CN(CC1(O)CCCN(Cc2cccc(F)c2F)C1=O)C1CCCCC1` (stereo not given) it was 0.856.

In the case of `CCN(CC)C(=O)C1CCCN(Cc2ccc3c(c2)CN(Cc2ccc4nsnc4c2)CCO3)C1` (stereo not given), the “bacterial growth OD600” value (polymyxin B 0.75 µg/mL) stood at 0.807. For `CC(CN1C(=O)CCC1CCNCc1cc2c(cc1Cl)OCO2)c1ccccc1` (stereo not given), the “bacterial growth OD600” value (polymyxin B 0.75 µg/mL) turned out to be 0.795. As for `C=C(C)CNc1ccc(C(=O)N2CCCCC2CCn2cccn2)cn1` (stereo not given), under “polymyxin B 1 µg/mL”, the “bacterial growth OD600” value was 0.503. For the compound `CC(=O)c1cc(C(=O)N2CCC(CCC(=O)Nc3ccccc3)CC2)cs1`, the “bacterial growth OD600” value (polymyxin B 1 µg/mL) worked out at 0.915. The same measure, in the same setting: the value for `O=C(NCc1c[nH]nc1-c1ccccc1)C1CCC(=O)N(CCCc2ccccc2)C1` (stereo not given) was 0.852.

As for `COc1cccc(CN2CCCC3(CCN(C(=O)c4ccc(OC)nc4OC)C3)C2)c1` (stereo not given), the “bacterial growth OD600” value (polymyxin B 1 µg/mL) is 0.931. Consider `CCOC(=O)C1(Cc2cccc(OC)c2)CCN(Cc2cc(OC)ccc2OC)CC1`, for which the “bacterial growth OD600” value (polymyxin B 1 µg/mL) worked out at 0.751. Same read-out and setting: the value for `COCCN1CCC(CN(CC2CCCO2)C(=O)c2cc(-c3ccc(C)o3)n[nH]2)CC1` (stereo not given) was 0.722.

For the origin of these results see the supplement of paper PMC12889115.
